# Measured values reported in the supplement of paper PMC8728848.
# The list shows a part of the results.
# B1: CcfD (Bacteroides fragilis), Q5L9G4 (protein)
# chain: MKKQNSIYTLLIALLCFVSSCDYLGVSDQLAGGLQNTEQVFDNVSYTKRWYANVFAGIPDYSGINSVNVGAFKNPWTGMCDELVVGYGNSSKYNNSDRNAANMGFHRYGDCYKYIRQANIFLQKAHPIMTTGTQGDQLLEDELTQMKANVRFMRAFYHYLLFEQYGPIILVKDKIYNATEDQDVPRNTVDEVIEYIDSELTAVASELTQEPIFEDKDYRAWPTKGVALAVRAKLWLYAASPLLNGGYREALSVTNPDGTRLFPDYDAGKWEKALAACKDFIDYAEAGRYELYKEYKDDNGAVIDPDKSVYNLFQKYTHEIIWATANNDWGGMNGDAFDRRIAPRCEKNGLGSTGVTQELVDAFYMKDGFPVSATAYLPQSTLYQEEGYGTYKDQNDNFSKKYTNVTVSNRYLNREPRFYNTVFFNGRQWPVSCNQVLFYNGGNSGVQEGQATLTGYMLFKRFNRSVSLTNPGVASQFRPSIIFRLADFYLMYAEAANEVNPNDARVLKYLNLVRERAGLPDIETLNPAIRGNQELQRAAIQRERQIELATEGQRYFDVRRWMIADKNGEGRQNGYVHGMNVRGESNDKEDFNRIVEASQIVFNRKMYLYPMPDSEMRKTKNLVQNPGW
# Key:
# Test in all cases: glycan array binding signal (z-score within array); higher = stronger binding
# Settings in all cases: glycan notation: IUPAC condensed, linker removed
# [1] = target: Gal(b1-4)GlcNAc(b1-3)Gal(b1-4)GlcNAc(b1-2)Man(a1-3)[Gal(b1-4)GlcNAc(b1-3)Gal(b1-4)GlcNAc(b1-2)Man(a1-6)]Man(b1-4)GlcNAc(b1-4)[Fuc(a1-6)]GlcNAc
# Method in brief: (§1)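 Glycan array binding is given as a within-array Z-score, which can be read as non-binding when negative. The arrays, 3228 of them, came from the Consortium for Functional Glycomics database and were retained only where the protein sequence was available. Z-scores were averaged across arrays of the same protein sequence at different concentrations or buffers and across linkers.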
# [2] = target: Gal(b1-4)GlcNAc(b1-3)Gal(b1-4)GlcNAc(b1-2)[Gal(b1-4)GlcNAc(b1-3)Gal(b1-4)GlcNAc(b1-6)]Man(a1-6)[Gal(b1-4)GlcNAc(b1-3)Gal(b1-4)GlcNAc(b1-2)Man(a1-3)]Man(b1-4)GlcNAc(b1-4)GlcNAc
# Method in brief: as §1
# [3] = target: Gal(b1-4)GlcNAc(b1-3)Gal(b1-4)GlcNAc(b1-2)[Gal(b1-4)GlcNAc(b1-3)Gal(b1-4)GlcNAc(b1-6)]Man(a1-6)[Gal(b1-4)GlcNAc(b1-3)Gal(b1-4)GlcNAc(b1-2)Man(a1-3)]Man(b1-4)GlcNAc(b1-4)[Fuc(a1-6)]GlcNAc
# Method in brief: as §1
# [4] = target: Gal(b1-4)GlcNAc(b1-3)Gal(b1-4)GlcNAc(b1-3)Gal(b1-4)GlcNAc
# Method in brief: as §1
# [5] = target: Gal(b1-4)GlcNAc(b1-3)Gal(b1-4)GlcNAc(b1-3)Gal(b1-4)GlcNAc(b1-2)Man(a1-3)[Gal(b1-4)GlcNAc(b1-3)Gal(b1-4)GlcNAc(b1-3)Gal(b1-4)GlcNAc(b1-2)Man(a1-6)]Man(b1-4)GlcNAc(b1-4)GlcNAc
# Method in brief: as §1
# [6] = target: Gal(b1-4)GlcNAc(b1-3)Gal(b1-4)GlcNAc(b1-3)Gal(b1-4)GlcNAc(b1-2)Man(a1-3)[Gal(b1-4)GlcNAc(b1-3)Gal(b1-4)GlcNAc(b1-3)Gal(b1-4)GlcNAc(b1-2)Man(a1-6)]Man(b1-4)GlcNAc(b1-4)[Fuc(a1-6)]GlcNAc
# Method in brief: as §1
# [7] = target: Gal(b1-4)GlcNAc(b1-3)Gal(b1-4)GlcNAc(b1-3)Gal(b1-4)GlcNAc(b1-2)[Gal(b1-4)GlcNAc(b1-3)Gal(b1-4)GlcNAc(b1-3)Gal(b1-4)GlcNAc(b1-6)]Man(a1-6)[Gal(b1-4)GlcNAc(b1-3)Gal(b1-4)GlcNAc(b1-3)Gal(b1-4)GlcNAc(b1-2)Man(a1-3)]Man(b1-4)GlcNAc(b1-4)[Fuc(a1-6)]GlcNAc
# Method in brief: as §1
# [8] = target: Gal(b1-4)GlcNAc(b1-3)Gal(b1-4)GlcNAc(b1-3)Gal(b1-4)GlcNAc(b1-3)Gal(b1-4)GlcNAc(b1-2)Man(a1-3)[Gal(b1-4)GlcNAc(b1-3)Gal(b1-4)GlcNAc(b1-3)Gal(b1-4)GlcNAc(b1-3)Gal(b1-4)GlcNAc(b1-2)Man(a1-6)]Man(b1-4)GlcNAc(b1-4)GlcNAc
# Method in brief: as §1
# [9] = target: Gal(b1-4)GlcNAc(b1-3)Gal(b1-4)GlcNAc(b1-3)Gal(b1-4)GlcNAc(b1-3)Gal(b1-4)GlcNAc(b1-2)Man(a1-3)[Gal(b1-4)GlcNAc(b1-3)Gal(b1-4)GlcNAc(b1-3)Gal(b1-4)GlcNAc(b1-3)Gal(b1-4)GlcNAc(b1-2)Man(a1-6)]Man(b1-4)GlcNAc(b1-4)[Fuc(a1-6)]GlcNAc
# Method in brief: as §1
# [10] = target: Gal(b1-4)GlcNAc(b1-3)Gal(b1-4)GlcNAc(b1-3)Gal(b1-4)GlcNAc(b1-3)Gal(b1-4)GlcNAc(b1-2)[Gal(b1-4)GlcNAc(b1-3)Gal(b1-4)GlcNAc(b1-3)Gal(b1-4)GlcNAc(b1-3)Gal(b1-4)GlcNAc(b1-6)]Man(a1-6)[Gal(b1-4)GlcNAc(b1-3)Gal(b1-4)GlcNAc(b1-3)Gal(b1-4)GlcNAc(b1-3)Gal(b1-4)GlcNAc(b1-2)Man(a1-3)]Man(b1-4)GlcNAc(b1-4)[Fuc(a1-6)]GlcNAc
# Method in brief: as §1
# [11] = target: Gal(b1-4)GlcNAc(b1-3)Gal(b1-4)GlcNAc(b1-3)Gal(b1-4)GlcNAc(b1-3)Gal(b1-4)GlcNAc(b1-3)Gal(b1-4)GlcNAc(b1-2)Man(a1-3)[Gal(b1-4)GlcNAc(b1-3)Gal(b1-4)GlcNAc(b1-3)Gal(b1-4)GlcNAc(b1-3)Gal(b1-4)GlcNAc(b1-3)Gal(b1-4)GlcNAc(b1-2)Man(a1-6)]Man(b1-4)GlcNAc(b1-4)GlcNAc
# Method in brief: as §1
# [12] = target: Gal(b1-4)GlcNAc(b1-3)Gal(b1-4)GlcNAc(b1-3)Gal(b1-4)GlcNAc(b1-3)Gal(b1-4)GlcNAc(b1-3)Gal(b1-4)GlcNAc(b1-2)Man(a1-3)[Gal(b1-4)GlcNAc(b1-3)Gal(b1-4)GlcNAc(b1-3)Gal(b1-4)GlcNAc(b1-3)Gal(b1-4)GlcNAc(b1-3)Gal(b1-4)GlcNAc(b1-2)Man(a1-6)]Man(b1-4)GlcNAc(b1-4)[Fuc(a1-6)]GlcNAc
# Method in brief: as §1
# [13] = target: Gal(b1-4)GlcNAc(b1-3)Gal(b1-4)GlcNAc(b1-3)Gal(b1-4)GlcNAc(b1-3)Gal(b1-4)GlcNAc(b1-3)Gal(b1-4)GlcNAc(b1-2)[Gal(b1-4)GlcNAc(b1-3)Gal(b1-4)GlcNAc(b1-3)Gal(b1-4)GlcNAc(b1-3)Gal(b1-4)GlcNAc(b1-3)Gal(b1-4)GlcNAc(b1-6)]Man(a1-6)[Gal(b1-4)GlcNAc(b1-3)Gal(b1-4)GlcNAc(b1-3)Gal(b1-4)GlcNAc(b1-3)Gal(b1-4)GlcNAc(b1-3)Gal(b1-4)GlcNAc(b1-2)Man(a1-3)]Man(b1-4)GlcNAc(b1-4)[Fuc(a1-6)]GlcNAc
# Method in brief: as §1
# [14] = target: Gal(b1-4)GlcNAc(b1-3)Gal(b1-4)GlcNAc(b1-3)Gal(b1-4)GlcNAc(b1-3)Gal(b1-4)GlcNAc(b1-3)Gal(b1-4)GlcNAc(b1-3)Gal(b1-4)GlcNAc(b1-2)Man(a1-3)[Gal(b1-4)GlcNAc(b1-3)Gal(b1-4)GlcNAc(b1-3)Gal(b1-4)GlcNAc(b1-3)Gal(b1-4)GlcNAc(b1-3)Gal(b1-4)GlcNAc(b1-3)Gal(b1-4)GlcNAc(b1-2)Man(a1-6)]Man(b1-4)GlcNAc(b1-4)GlcNAc
# Method in brief: as §1
# [15] = target: Gal(b1-4)GlcNAc(b1-3)Gal(b1-4)GlcNAc(b1-3)GalNAc
# Method in brief: as §1
# [16] = target: Gal(b1-4)GlcNAc(b1-3)Gal(b1-4)GlcNAc(b1-3)[Gal(b1-4)GlcNAc(b1-3)Gal(b1-4)GlcNAc(b1-6)]GalNAc
# Method in brief: as §1
# [17] = target: Gal(b1-4)GlcNAc(b1-3)Gal(b1-4)GlcNAc(b1-6)[Gal(b1-3)]GalNAc
# Method in brief: as §1
# [18] = target: Gal(b1-4)GlcNAc(b1-3)Gal(b1-4)[Fuc(a1-3)]GlcNAc(b1-3)Gal(b1-4)[Fuc(a1-3)]GlcNAc
# Method in brief: as §1
# [19] = target: Gal(b1-4)GlcNAc(b1-3)GalNAc
# Method in brief: as §1
# [20] = target: Gal(b1-4)GlcNAc(b1-3)[Fuc(a1-3)GlcNAc(b1-6)]Gal(b1-4)Glc
# Method in brief: as §1
# [21] = target: Gal(b1-4)GlcNAc(b1-3)[Gal(b1-4)GlcNAc(b1-6)]Gal(b1-4)GlcNAc
# Method in brief: as §1
# [22] = target: Gal(b1-4)GlcNAc(b1-3)[GlcNAc(b1-6)]Gal(b1-4)GlcNAc
# Method in brief: as §1
# [23] = target: Gal(b1-4)GlcNAc(b1-6)Gal(b1-4)GlcNAc
# Method in brief: as §1
# [24] = target: Gal(b1-4)GlcNAc(b1-6)GalNAc
# Method in brief: as §1
# [25] = target: Gal(b1-4)GlcNAc(b1-6)[Gal(b1-3)]GalNAc
# Method in brief: as §1
# [26] = target: Gal(b1-4)GlcNAc(b1-6)[Gal(b1-4)GlcNAc(b1-3)]GalNAc
# Method in brief: as §1
# [27] = target: Gal(b1-4)GlcNAc6P
# Method in brief: as §1
# [28] = target: Gal(b1-6)Gal
# Method in brief: as §1
# [29] = target: Gal3S(b1-3)GalNAc
# Method in brief: as §1
# [30] = target: Gal3S(b1-3)GlcNAc
# Method in brief: as §1
binder,measurement,setting,value
B1,glycan array binding signal (z-score),[1],1.5
same,glycan array binding signal (z-score),[2],0.956
same,glycan array binding signal (z-score),[3],1.7
same,glycan array binding signal (z-score),[4],-0.896
same,glycan array binding signal (z-score),[5],2.2
same,glycan array binding signal (z-score),[6],1.57
same,glycan array binding signal (z-score),[7],2.18
same,glycan array binding signal (z-score),[8],0.929
same,glycan array binding signal (z-score),[9],0.43
same,glycan array binding signal (z-score),[10],0.049
same,glycan array binding signal (z-score),[11],0.095
same,glycan array binding signal (z-score),[12],0.831
same,glycan array binding signal (z-score),[13],-0.319
same,glycan array binding signal (z-score),[14],-1.11
same,glycan array binding signal (z-score),[15],0.43
same,glycan array binding signal (z-score),[16],-0.148
same,glycan array binding signal (z-score),[17],1.46
same,glycan array binding signal (z-score),[18],-0.864
same,glycan array binding signal (z-score),[19],-0.998
same,glycan array binding signal (z-score),[20],-0.069
same,glycan array binding signal (z-score),[21],-0.726
same,glycan array binding signal (z-score),[22],-0.91
same,glycan array binding signal (z-score),[23],-0.87
same,glycan array binding signal (z-score),[24],-1.03
same,glycan array binding signal (z-score),[25],0.499
same,glycan array binding signal (z-score),[26],-0.499
same,glycan array binding signal (z-score),[27],-0.24
same,glycan array binding signal (z-score),[28],-0.969
same,glycan array binding signal (z-score),[29],0.942
same,glycan array binding signal (z-score),[30],0.059

# Already shown: an excerpt of the list.
binder,measurement,setting,value
B1,glycan array binding signal (z-score),[23],-0.87
same,glycan array binding signal (z-score),[24],-1.03
